Data reported in patent publication US20110212084A1.
No constants are given. Whether binding was seen depends on the method and setting.

Experiments:
Experiment in all cases: condition: competitor series starting at approximately 1000-fold the KD; DELFIA epitope competition; competitor vs biotinylated human IgE on immobilised IgG
[1] = biological target: human IgG (purified, Calbiochem) (human)
[2] = biological target: human IgD (purified, Calbiochem) (human)
[3] = biological target: human IgA (purified, Calbiochem) (human)
[4] = biological target: human IgM (purified, Calbiochem) (human)

Measured: binding

B1: Antibody 33GL (germlined IgG) (antibody, V domains shown)
VH: EVQLLESGGGLVQPGGSLSLSCAAPGFTFSSYAMSWVRQAPGKGLEWVSAISGGSGGRTYYADSVKGRFTISKDNSKNTLYLQMNSLRAEDTAVYYCARHIAVAGTRGFDYWGRGTLVTVSS
VL: SYELTQPPSVSVSPGQTASITCSGDKLGDTYASWYQQKPGLSPALVIYQDDKRPSGIPERFSGSNSGNTATLTISGTQAMDEADYYCLAWDTRTSGAVFGGGTKLTVL
no binding: all assays above
